# According to article PMC7819943, “Rice protein-binding microarrays: a tool to detect cis-acting elements near promoter regions in rice”:
# The other results are listed elsewhere or left out.
# Target: T1, OsSMF1 (Oryza sativa, UniProt Q6ZLB0 1-436)
# T1 sequence: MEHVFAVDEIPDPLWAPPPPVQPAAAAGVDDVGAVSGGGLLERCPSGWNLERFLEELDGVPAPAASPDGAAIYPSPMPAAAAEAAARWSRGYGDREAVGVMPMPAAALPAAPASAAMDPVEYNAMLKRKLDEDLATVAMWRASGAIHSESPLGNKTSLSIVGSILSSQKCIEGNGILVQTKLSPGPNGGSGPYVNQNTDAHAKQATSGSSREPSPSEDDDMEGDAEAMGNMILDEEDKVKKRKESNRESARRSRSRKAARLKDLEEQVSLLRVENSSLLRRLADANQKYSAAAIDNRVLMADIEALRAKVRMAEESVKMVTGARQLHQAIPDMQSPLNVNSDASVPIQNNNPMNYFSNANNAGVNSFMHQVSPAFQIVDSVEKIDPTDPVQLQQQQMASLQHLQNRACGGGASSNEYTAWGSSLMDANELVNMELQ
# Test: protein-binding microarray (RPBM); PBS, 2% BSA, 51.3 ng/ul salmon testes DNA, 50 uM zinc acetate, 200 nM TF, 25 C, 1 h; high values mean tight binding
# Settings: protein: recombinant; tags: N-terminal polyhistidine and DsRed monomer fusion (pET32a); chain copies: 2; label: CyDye5-dUTP incorporated in the synthesized complementary strand; 3' TTTTT single-stranded linker to array surface; dsDNA, one strand shown
# How it was run: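 Transcription factors were each fused at the N-terminus to a polyhistidine tag plus DsRed and expressed in E. coli BL21-CodonPlus before Ni–NTA purification. Binding to a double-stranded custom Agilent array was carried out with 200 nM protein at 25 °C for 1 h in PBS, 2% BSA, salmon testes DNA and 50 µM zinc acetate. The binding signal is per-feature fluorescence intensity, in arbitrary units, on an Axon 4000B scanner.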
row,Sequence,binding signal
1,TGTTTCATCTAGTATAAGGACGTGGCATCGTATTAATTTCCGGAGTCACCTAGTGCAG,8200 fluorescence intensity (a.u.)
2,TATCAGCATTCAGCAGATGCTCGTGTGGAAAATTCAGGGTCGGAGTCACCTAGTGCAG,3310 fluorescence intensity (a.u.)
3,AACCCAGATATCCAATCCGGCCCTTCTCATCAGTTGTCAGCGGAGTCACCTAGTGCAG,3380 fluorescence intensity (a.u.)
4,GCCTCGCCTTCTCGCTCGTTCCCATGGGCGGATCTGCTGACGGAGTCACCTAGTGCAG,4280 fluorescence intensity (a.u.)
5,GAGTCGTCGCCGAGGCGGCCGCCCGCGATGACGATGCGACCGGAGTCACCTAGTGCAG,3750 fluorescence intensity (a.u.)
6,TGGGGTTCACATTTAAATTGTTGATGACCTGTATTCTCATCGGAGTCACCTAGTGCAG,3660 fluorescence intensity (a.u.)
7,CGGGGAGGGCCTACCTACACAAGTAGGAGTAGGCATGTTGCGGAGTCACCTAGTGCAG,3970 fluorescence intensity (a.u.)
8,GTGGGTAGCCATGGCGCCGCCCATGTCGTGCTCAGCAATTCGGAGTCACCTAGTGCAG,3370 fluorescence intensity (a.u.)
9,CAACTACCAAACTGTCACAACATGACGCAGCAACCAAACCCGGAGTCACCTAGTGCAG,5080 fluorescence intensity (a.u.)
10,ACCTAGCTAACTGACTGAGATGTGACATGCTACTAGGAGTCGGAGTCACCTAGTGCAG,3200 fluorescence intensity (a.u.)
11,GCTGTGGCGCCCTCGTGTCGCCACGACACCACTCTCACCGCGGAGTCACCTAGTGCAG,7950 fluorescence intensity (a.u.)
12,GATTCGAGATTCAGGTAGGTTGTATAGTTCACGGGAGCAACGGAGTCACCTAGTGCAG,64500 fluorescence intensity (a.u.)
13,TATGTTGCCTTCTTCTGCCTTATCAAGTCACATTATATTGCGGAGTCACCTAGTGCAG,4660 fluorescence intensity (a.u.)
14,GTTAGCTAGCAAATATTCAGACGCACGCAATGCGTCATGCCGGAGTCACCTAGTGCAG,3740 fluorescence intensity (a.u.)
15,GCCTCGTCGACCTCGTCACCTCGCCGTGGCCCGCCCGCGTCGGAGTCACCTAGTGCAG,6660 fluorescence intensity (a.u.)
16,TCCACCTCCGTGCCACCTCATCGCCGGTGCCAACCTCCGGCGGAGTCACCTAGTGCAG,13100 fluorescence intensity (a.u.)
17,GGTTTGCTAAAAGTCTTCAGAATTCAGGGCTTATACAAATCGGAGTCACCTAGTGCAG,3160 fluorescence intensity (a.u.)
18,GGAAACTGGTGGGGTGGGAGTCGCCACGACACGCGGCGACCGGAGTCACCTAGTGCAG,4220 fluorescence intensity (a.u.)
19,AGCCTGCCTCCATCACGACCACGACGTACTCACAACCTCGCGGAGTCACCTAGTGCAG,3500 fluorescence intensity (a.u.)
20,GCGAACACTGAGGTGTTGACGTTGCGCTCCGCCTCGCTGTCGGAGTCACCTAGTGCAG,3840 fluorescence intensity (a.u.)
21,ACATACAACTATATTGACAAGTGTGCCAACTCAGTGGGTGCGGAGTCACCTAGTGCAG,5670 fluorescence intensity (a.u.)

# As entered above.
# CGGGGAGGGCCTACCTACACAAGTAGGAGTAGGCATGTTGCGGAGTCACCTAGTGCAG – binding signal: 3970 fluorescence intensity (a.u.)
# GGTTTGCTAAAAGTCTTCAGAATTCAGGGCTTATACAAATCGGAGTCACCTAGTGCAG – binding signal: 3160 fluorescence intensity (a.u.)
# TCCACCTCCGTGCCACCTCATCGCCGGTGCCAACCTCCGGCGGAGTCACCTAGTGCAG – binding signal: 13100 fluorescence intensity (a.u.)

# (cont.)

row,Sequence,binding signal
1,TACGAAATATGACACATCATTATTTAAATAAATCAATCTCCGGAGTCACCTAGTGCAG,7630 fluorescence intensity (a.u.)
2,CATGTCGATCGCCACCACGCGTGCCACGGCGGCCAAGATGCGGAGTCACCTAGTGCAG,6840 fluorescence intensity (a.u.)
3,CACCATGCATAAATCATAATGCTGGACTTTTAGATCTTCGCGGAGTCACCTAGTGCAG,19800 fluorescence intensity (a.u.)
4,AAATCCCCGCCGCGCTGACTCCGCCCCGCGATTCCCCGCCCGGAGTCACCTAGTGCAG,5020 fluorescence intensity (a.u.)
5,TTAGGTACATAAGGAAATCTGCTGCATTCACGCGTGGCATCGGAGTCACCTAGTGCAG,37500 fluorescence intensity (a.u.)
6,TTCTTCCCGTGCCACGTCCAAGTCACCGCATGATCCATGGCGGAGTCACCTAGTGCAG,8040 fluorescence intensity (a.u.)
7,TCTTATCAAGACACTCTGACTCACCCACTTCCTAAGCTCTCGGAGTCACCTAGTGCAG,11100 fluorescence intensity (a.u.)
8,CCGCGTGGGTCCAACTTGCCATGTCAGCCAAAACCAGCCACGGAGTCACCTAGTGCAG,6030 fluorescence intensity (a.u.)
9,GGGAGACTGGAGAGGAGGGGAGAGGAGATGGTGGCCTGGCCGGAGTCACCTAGTGCAG,26800 fluorescence intensity (a.u.)
10,CCGGATGACATGATGACACCGCTACCCATTAAGTTTCGTCCGGAGTCACCTAGTGCAG,4050 fluorescence intensity (a.u.)
11,GGGATGTGACATATTAGGCCATTCCTAACCCAATAATTAGCGGAGTCACCTAGTGCAG,3560 fluorescence intensity (a.u.)
12,GAGAGAATGAAGCCGGTATATCATCGCTCACAGTGGTTGCCGGAGTCACCTAGTGCAG,3240 fluorescence intensity (a.u.)
13,AACTAGCAGATCTACGTAGTTACCGATATCTACAATACGCCGGAGTCACCTAGTGCAG,4010 fluorescence intensity (a.u.)
14,TGTTGTTCTACATAAACAATGCTGACTACACCAAATCCGACGGAGTCACCTAGTGCAG,4710 fluorescence intensity (a.u.)
15,CGGCCAACCGGTGCGGGCTCTGACGCTGAACTCCATCAACCGGAGTCACCTAGTGCAG,3220 fluorescence intensity (a.u.)
16,TCGCCTGCGCCTGGCACCGCACACCGCCGACGAGGCCACGCGGAGTCACCTAGTGCAG,4240 fluorescence intensity (a.u.)
17,GCCAGCCACCGCCACTTCCCCTCGTTGTCTCGCCACCTCCCGGAGTCACCTAGTGCAG,3400 fluorescence intensity (a.u.)
18,CCTCTTCTGTTCCGACTCCCGTAGGACACTTCAAAATCAACGGAGTCACCTAGTGCAG,13200 fluorescence intensity (a.u.)
19,TCTGCAATTTAACACTGACTGACGTGTACCCAGCGAGTAGCGGAGTCACCTAGTGCAG,11800 fluorescence intensity (a.u.)
20,TCTCCTGCGCCATGCCTATGTCAACCAAGACCGCAGTCCTCGGAGTCACCTAGTGCAG,3630 fluorescence intensity (a.u.)
21,TTGCAGCATCACCTGGCGAGGCGTAGCTAGGAGATGCAGACGGAGTCACCTAGTGCAG,40100 fluorescence intensity (a.u.)
